Measured values reported in patent US20180235917A1, “COMPOSITIONS, METHODS AND KITS FOR TREATMENT OF DIABETES AND/OR […]” (NuSirt Sciences, Inc., priority 2014, published 2018).
For part of these data: For at least one compound, name, drawing or mass did not settle the structure. Some of these results come from one statement about several compounds together.

How the values were obtained:
Sirt1 = molecular target: T1, Sirt1 (Mus musculus, UniProt Q923E4); assay: Sirt1 activity (SIRT1 Fluorimetric Drug Discovery Kit) in treated cells; assay type: cell-based; settings: leucine 0.5 mM, HMB 5 μM, resveratrol 200 nM, alone or combined; cell type not stated
T1 construct: endogenous in cells; host or cells: differentiated 3T3-L1 adipocytes and C2C12 myotubes (lysates)
T1 sequence (Q923E4 1-737): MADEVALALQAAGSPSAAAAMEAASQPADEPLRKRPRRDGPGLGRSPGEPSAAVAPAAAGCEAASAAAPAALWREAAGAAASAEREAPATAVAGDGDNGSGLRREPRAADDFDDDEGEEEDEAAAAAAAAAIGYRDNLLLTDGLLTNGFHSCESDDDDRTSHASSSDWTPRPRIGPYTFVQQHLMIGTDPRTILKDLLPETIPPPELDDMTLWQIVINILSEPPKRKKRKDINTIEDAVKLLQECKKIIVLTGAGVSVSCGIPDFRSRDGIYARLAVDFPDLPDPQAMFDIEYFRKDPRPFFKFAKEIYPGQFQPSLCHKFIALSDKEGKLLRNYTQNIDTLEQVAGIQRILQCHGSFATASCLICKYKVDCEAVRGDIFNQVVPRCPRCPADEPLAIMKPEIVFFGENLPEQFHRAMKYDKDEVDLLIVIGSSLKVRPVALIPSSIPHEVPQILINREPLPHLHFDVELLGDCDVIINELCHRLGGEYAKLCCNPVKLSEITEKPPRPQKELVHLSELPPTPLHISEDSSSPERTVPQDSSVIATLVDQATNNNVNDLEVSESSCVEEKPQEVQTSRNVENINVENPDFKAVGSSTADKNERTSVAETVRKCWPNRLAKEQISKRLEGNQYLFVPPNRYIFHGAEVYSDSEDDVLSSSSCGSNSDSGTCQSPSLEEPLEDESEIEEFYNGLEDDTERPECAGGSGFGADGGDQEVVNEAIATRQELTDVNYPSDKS
Protocol: SIRT1 activity was measured by using the SIRT1 Fluorimetric Drug Discovery Kit (BML-AK555, ENZO Life Sciences International, Inc. PA, USA). The assay measures SIRT1 activity by the degree of deacetylation of a standardized substrate containing an acetylated lysine side chain. The substrate utilized is a peptide containing amino acids 379-382 of human p53 (Arg-His-Lys-Lys[Ac]), an established target of SIRT1 activity; SIRT1 activity is directly proportional to the degree of deacetylation of Lys-382. Samples were incubated with peptide substrate (25 μM), and NAD^+ (500 μM) in a phosphate-buffered saline solution at 37° C. on a horizontal shaker for 45 minutes. […] Following 10 minutes incubation at 37° C., fluorescence was read in a plate-reading fluorometer (Synergy HT, BioTek Instruments, Winooski, Vt.) at an excitation wavelength of 360 nm and an emission wavelength of 450 nm. […]
Sirt1 activity was measured by using the Sirt1 Fluorimetric Drug Discovery Kit (BML-AK555, ENZO Life Sciences Inc., Farmingdale, N.Y., USA). […] Sirt1 activity was assessed by the degree of deacetylation of a standardized substrate containing an acetylated lysine side chain. […] Following 10 minutes incubation at 37° C., fluorescence was read in a plate-reading fluorimeter with excitation and emission wavelengths of 360 nm and 450 nm, respectively. […] Sirt1 activity was measured in a modified assay using 5 μl of cell lysate. […]

[1] = system: adipocytes (3T3-L1) and myotubes (C2C12); assay: Fatty acid oxidation and dose-response screening, cell type not stated; assay type: cell-based, mouse; settings: leucine 0.5 mM, HMB 5 μM, resveratrol 200 nM, myo-inositol 100 nM
[2] = system: adipocytes (3T3-L1) and myotubes (C2C12); assay: Glucose utilization (extracellular acidification), cell type not stated; assay type: cell-based, mouse; settings: compound alone
Protocol: In the absence of a fatty acid source and oxidative metabolism, glycolysis and subsequent lactate production results in extracellular acidification, which was also measured using a Seahorse Bioscience XF24 analyzer. Cells were prepared and equilibrated similar to the methods described above for fatty acid oxidation, with the exclusion of carnitine from the medium. Following instrument equilibration and three baseline measurements, glucose was injected to a final concentration of 10 mM in each well. Measurements were taken as described above utilizing the sensors for extracellular acidification rather than O2 consumption. Insulin (final concentration of 5 nM) was added to some wells as a positive control. Data for each sample were normalized to the pre-glucose injection baseline for that sample and expressed as % change from that baseline. The area under of the curve of extracellular acidification change from baseline for each sample was then calculated and used for subsequent analysis.
In the absence of a fatty acid source and oxidative metabolism, glycolysis and subsequent lactate production results in extracellular acidification, which was also measured using a Seahorse Bioscience XF24 analyzer. […] Data for each sample were normalized to the pre-glucose injection baseline for that sample and expressed as % change from that baseline. […]

Row | SMILES | stimulation of Sirt1 activity (Sirt1) | increase in fatty acid oxidation [1] | no-effect threshold for stimulation of glucose utilization [2]
1 | CC(C)C[C@H](N)C(=O)O [Leucine, leucine] | 30-50% | 30-50% | –
2 | CN(C)C(=N)N [Dimethylguanidine] | – | – | 100 μM-1 mM
